## Cleaved PARP after 72 h of treatment

Values as published with doi:10.1371/journal.pone.0140310, rounded.

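The test systems are human melanoma cell lines, treated with two drugs together for 72 h and then stained and imaged. The read-out is the fraction of cleaved-PARP-positive nuclei, in % of that fraction in the DMSO control; 200 means twice the control level of this apoptosis marker. Concentrations were fixed for each drug; these are the higher of two levels. No replicate spread is given; individual values may be noisy. The marker varies much from line to line, for technical or biological reasons.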 An unselected part of the screen is shown.

Compounds and concentrations:
fludarabine, 1 µM: Nc1nc(F)nc2c1ncn2[C@@H]1O[C@H](CO)[C@@H](O)[C@@H]1O
sorafenib, 2 µM: CNC(=O)c1cc(Oc2ccc(NC(=O)Nc3ccc(Cl)c(C(F)(F)F)c3)cc2)ccn1

Cell line	fludarabine + sorafenib
COLO 829	138
UACC-62	41.2
COLO 800	99.0
A2058	139
MeWo	193
WM451Lu	240
C32	59.3
IPC-298	183
COLO 792	133
MZ2-MEL	118
A101D	204
LB2518-MEL	64.9
WM1745	115

The first 2 entries again:

| Cell line | fludarabine + sorafenib |
|---|---|
| COLO 829 | 138 |
| UACC-62 | 41.2 |